Values joined by “and” are separate entries in the source; they are usually repeats but may differ in a detail not shown here. Equal entries are not always repeated. Structures can show the parent of a compound that is named as a salt. ± gives the standard deviation of the averaged measurements. The list shows a part of the results. Repeats in this data set agree poorly, so a single value says little.

The subject of the assay is A549. The assay is described as follows: surface PD-L1 immunofluorescence intensity relative to IFN-gamma-only control (ratio); higher = more PD-L1 expression. To be noted: 10 µM; exposure time 24 h; IFN-gamma 100 ng/mL.
As for `CCOC(=O)[C@@H](C)Oc1cccc2c(=O)n(CC(=O)Nc3ccc4c(c3)OCCO4)ccc12`, the “surface PD-L1 immunofluorescence intensity” value is 0.978.

Consider `CCc1cc2c(cc1CC)CC(NC[C@H](O)c1ccc(O)c3[nH]c(=O)ccc13)C2` [Indacaterol Maleate], for which the “surface PD-L1 immunofluorescence intensity” value stood at 0.94.

As for `CNCC(O)c1ccc(O)c(O)c1` (centres undefined) [Racepinephrine HCl], the “surface PD-L1 immunofluorescence intensity” value was found to be 1.04.

Take `c1cc(CN2CCCCC2)cc(OCCCNc2nc3ccccc3s2)c1` [Zolantidine dimaleate]: the “surface PD-L1 immunofluorescence intensity” value was 0.982.

Take `CCOC1O[C@H]([C@@H](COCc2ccccc2)OCc2ccccc2)[C@H](OCc2ccccc2)[C@H]1O` (some centres undefined) [Tribenoside]: the “surface PD-L1 immunofluorescence intensity” value is 1.06.

Consider `CC(CNC1CCCCC1)OC(=O)c1ccccc1` (centres undefined) [Hexylcaine hydrochloride], for which the “surface PD-L1 immunofluorescence intensity” value came to 1.04.

`O=C(O)c1cccc(-c2noc(-c3ccccc3F)n2)c1` [PTC124 (Ataluren)]: the “surface PD-L1 immunofluorescence intensity” value was 1.04.

Turning to `Cc1ccc(-c2cc(C(F)(F)F)nn2-c2ccc(S(N)(=O)=O)cc2)cc1` [Celecoxib], the “surface PD-L1 immunofluorescence intensity” value stood at 0.956 ± 0.048.

On to `CC(C)[N+]1(C)[C@@H]2CC[C@H]1C[C@@H](OC(=O)C(CO)c1ccccc1)C2` (some centres undefined) [Ipratropium bromide], for which the “surface PD-L1 immunofluorescence intensity” value worked out at 1.09.

For the molecule `CCOC(=O)C1=C(C)NC(=S)NC1c1cccc(O)c1` (centres undefined) [Monastrol], the “surface PD-L1 immunofluorescence intensity” value turned out to be 0.994.

Consider `CCn1c(N)c(C(=O)NC)c(=O)c2ccc(C#CC(C)(O)COC)nc21` (centres undefined), for which the “surface PD-L1 immunofluorescence intensity” value is 0.999 ± 0.061.

`N#Cc1c(N(CC(=O)O)CC(=O)O)sc(C(=O)O)c1CC(=O)O` [Strontium ranelate (Protelos)]: the “surface PD-L1 immunofluorescence intensity” value stood at 1.07.

Turning to `CC[C@H]1OC(=O)[C@H](C)[C@@H](O[C@H]2C[C@@](C)(OC)[C@@H](O)[C@H](C)O2)[C@H](C)[C@@H](O[C@@H]2O[C@H](C)C[C@H](N(C)C)[C@H]2O)[C@](C)(O)C[C@@H](C)CN(C)[C@H](C)[C@@H](O)[C@]1(C)O` [Azithromycin (Zithromax)], the “surface PD-L1 immunofluorescence intensity” value worked out at 1.08.

With `CC[C@H]1OC(=O)[C@H](C)[C@@H](O[C@H]2C[C@@](C)(OC)[C@@H](O)[C@H](C)O2)[C@H](C)[C@@H](O[C@@H]2O[C@H](C)C[C@H](N(C)C)[C@H]2O)[C@](C)(O)C[C@@H](C)CN(C)[C@H](C)[C@@H](O)[C@]1(C)O` [Azithromycin], the “surface PD-L1 immunofluorescence intensity” value worked out at 0.989.

Consider `C[C@@H]1CCC[C@H](C)N1NC(=O)c1ccc(Cl)c(S(N)(=O)=O)c1` [Clopamide], for which the “surface PD-L1 immunofluorescence intensity” value was 0.991.

As for `CN[C@H]1CC[C@@H](c2ccc(Cl)c(Cl)c2)c2ccccc21` [Sertraline hydrochloride], the “surface PD-L1 immunofluorescence intensity” value came to 0.828.

Turning to `CN[C@H]1CC[C@@H](c2ccc(Cl)c(Cl)c2)c2ccccc21` [Sertraline], the “surface PD-L1 immunofluorescence intensity” value turned out to be 0.953.

In the case of `COCCNC(=O)COc1ccc(OCCNC[C@H](O)COc2ccccc2)cc1` [ZD 7114 hydrochloride], the “surface PD-L1 immunofluorescence intensity” value was 0.954.

In the case of `COCC(=O)NC/C=C/c1ccc2ncnc(Nc3ccc(Oc4ccc(C)nc4)c(C)c3)c2c1`, the “surface PD-L1 immunofluorescence intensity” value turned out to be 0.842.

As for `Cn1c(=O)c2c(ncn2CC2OCCO2)n(C)c1=O` [Doxofylline], the “surface PD-L1 immunofluorescence intensity” value is 1.03.

`Oc1cc2c(cc1O)C(c1ccccc1)CNCC2` (centres undefined): the “surface PD-L1 immunofluorescence intensity” value amounted to 0.967.

For `CC(C)NC[C@@H](C(=O)N1CCN(c2ncnc3c2[C@H](C)C[C@H]3O)CC1)c1ccc(Cl)cc1` [Ipatasertib (GDC-0068)], the “surface PD-L1 immunofluorescence intensity” value came to 0.823.

As for `Cc1ccc([C@@H]2O[C@H](CO)[C@@H](O)[C@H](O)[C@H]2O)cc1Cc1ccc(-c2ccc(F)cc2)s1` [Canagliflozin], the “surface PD-L1 immunofluorescence intensity” value worked out at 1.02.

`CC(C)(C)c1cc(C(C)(C)C)c(NC(=O)c2c[nH]c3ccccc3c2=O)cc1O` [Ivacaftor (VX-770)]: the “surface PD-L1 immunofluorescence intensity” value stood at 1.21.

In the case of `CN1CCN(CC(=O)N2c3ccccc3C(=O)Nc3cccnc32)CC1` [Pirenzepine dihydrochloride], the “surface PD-L1 immunofluorescence intensity” value amounted to 0.797.

`CC(=O)N(CC(O)CO)c1c(I)c(C(=O)NCC(O)CO)c(I)c(C(=O)NCC(O)CO)c1I` (centres undefined) [Iohexol]: the “surface PD-L1 immunofluorescence intensity” value is 0.997.

`CN(CCCCCCCCCCN(C)C(=O)Oc1cccc([N+](C)(C)C)c1)C(=O)Oc1cccc([N+](C)(C)C)c1` [Demecarium bromide]: the “surface PD-L1 immunofluorescence intensity” value was 0.99.

Turning to `CC1CCN(CC[C@H]2CCCN2S(=O)(=O)c2cccc(O)c2)CC1`, the “surface PD-L1 immunofluorescence intensity” value was 0.998 and 0.96.

For the molecule `Nc1ncnc2c1ncn2[C@@H]1O[C@H](CO)[C@@H](O)[C@@H]1O` [Vidarabine], the “surface PD-L1 immunofluorescence intensity” value came to 1.1.

Consider `NC[C@@H]1O[C@H](C23CC4CC(CC(C4)C2)C3)Cc2c1ccc(O)c2O`, for which the “surface PD-L1 immunofluorescence intensity” value was determined as 0.976.

On to `CC1OC2(CS1)CN1CCC2CC1` (centres undefined) [Cevimeline hydrochloride], for which the “surface PD-L1 immunofluorescence intensity” value was determined as 0.978.

Take `CCOc1nc2cccc(C(=O)O)c2n1Cc1ccc(-c2ccccc2-c2nnn[nH]2)cc1` [Candesartan]: the “surface PD-L1 immunofluorescence intensity” value came out at 0.917.

As for `C[C@@](Cc1ccc(O)c(O)c1)(NN)C(=O)O` [Carbidopa], the “surface PD-L1 immunofluorescence intensity” value turned out to be 0.909.

`O=C[C@@H]1CCCN1C(=O)[C@@H]1CCCN1C(=O)OCc1ccccc1` [Z-Prolyl-prolinal]: the “surface PD-L1 immunofluorescence intensity” value turned out to be 1.

As for `COc1ccc(Cl)cc1NC(=O)Nc1cc(C)nc2ccccc12`, the “surface PD-L1 immunofluorescence intensity” value amounted to 1.06 ± 0.032.

As to `CN(C)CCC(c1ccc(Br)cc1)c1ccccn1` (centres undefined) [Brompheniramine maleate], the “surface PD-L1 immunofluorescence intensity” value came to 0.96.

As to `O=C1CC[C@@H](C(=O)N2CSC[C@H]2C(=O)O)N1` [Pidotimod], the “surface PD-L1 immunofluorescence intensity” value amounted to 0.946.

As to `c1ccc(-c2ccc(C(c3ccccc3)n3ccnc3)cc2)cc1` (centres undefined) [Bifonazole], the “surface PD-L1 immunofluorescence intensity” value is 1.13.

Turning to `Oc1c(Cl)cc(Cl)c2cccnc12` [Chloroxine], the “surface PD-L1 immunofluorescence intensity” value was determined as 0.952.

Take `CCCCCCCCCC(=O)N[C@@H](Cc1c[nH]c2ccccc12)C(=O)N[C@H](CC(N)=O)C(=O)N[C@@H](CC(=O)O)C(=O)N[C@@H]1C(=O)NCC(=O)N[C@@H](CCCN)C(=O)N[C@@H](CC(=O)O)C(=O)N[C@H](C)C(=O)N[C@@H](CC(=O)O)C(=O)NCC(=O)N[C@H](CO)C(=O)N[C@@H]([C@H](C)CC(=O)O)C(=O)N[C@@H](CC(=O)c2ccccc2N)C(=O)O[C@@H]1C` [Daptomycin]: the “surface PD-L1 immunofluorescence intensity” value came out at 1.03.

As for `CCC1(c2ccccc2)C(=O)NCNC1=O` [Primidone], the “surface PD-L1 immunofluorescence intensity” value turned out to be 0.907 ± 0.037.

Consider `C[C@H]1[C@H](C)CC[C@]2(C(=O)O)CC[C@]3(C)C(=CC[C@@H]4[C@@]5(C)CC[C@H](O)C(C)(C)[C@@H]5CC[C@]43C)[C@H]12` [Ursolic acid (Malol)], for which the “surface PD-L1 immunofluorescence intensity” value came out at 1.05.

As to `O=C(c1ccc(F)cc1)C1CCN(CCn2c(=O)[nH]c3ccccc3c2=O)CC1` [Ketanserin tartrate hydrate], the “surface PD-L1 immunofluorescence intensity” value amounted to 0.901.

`Cc1noc(NS(=O)(=O)c2cccc3c(N(C)C)cccc23)c1C`: the “surface PD-L1 immunofluorescence intensity” value is 1.02.

Consider `CCN(CC)C(=O)c1ccc(O)c(OC)c1` [Ethamivan], for which the “surface PD-L1 immunofluorescence intensity” value turned out to be 1.06.

Turning to `Nc1nccc(Oc2ccc(NC(=O)c3c[nH]cc(-c4ccc(F)cc4)c3=O)cc2F)c1Cl`, the “surface PD-L1 immunofluorescence intensity” value was found to be 1.04.

On to `CN(C)CCOC(c1ccccc1)c1ccccc1.Cn1c(=O)c2[nH]c(Cl)nc2n(C)c1=O` [Dimenhydrinate], for which the “surface PD-L1 immunofluorescence intensity” value stood at 0.909.

On to `CN(CCCN1c2ccccc2CCc2ccccc21)CC(=O)c1ccc(Cl)cc1` [Lofepramine], for which the “surface PD-L1 immunofluorescence intensity” value was found to be 0.995.

Turning to `CCS(=O)(=O)N1CC(CC#N)(n2cc(-c3ncnc4[nH]ccc34)cn2)C1`, the “surface PD-L1 immunofluorescence intensity” value amounted to 0.717.

In the case of `CC(=O)OCCN1C(=O)c2c(C)nc3ccc(S(=O)(=O)N4CCOCC4)cc3c2C1=O` [Ivachtin], the “surface PD-L1 immunofluorescence intensity” value was found to be 0.976.

Consider `O=C1NCC2(CCN(CCc3ccccc3)CC2)O1` [Fenspiride hydrochloride], for which the “surface PD-L1 immunofluorescence intensity” value was determined as 0.951.

As for `Clc1ccc2c(c1)CCc1cccnc1C2=C1CCNCC1` [Desloratadine], the “surface PD-L1 immunofluorescence intensity” value amounted to 1.06.

On to `O=C1NC(=O)c2cc(Nc3ccccc3)c(Nc3ccccc3)cc21`, for which the “surface PD-L1 immunofluorescence intensity” value was found to be 0.967.

For `O=C(O)CCc1ccc(NCc2cccc(Oc3ccccc3)c2)cc1`, the “surface PD-L1 immunofluorescence intensity” value was found to be 0.917.

For the molecule `CC(=O)O[C@@H]1C[C@H]2C(C)(C)C(=O)C=C[C@]2(C)[C@H]2CC[C@@]3(C)[C@H](c4ccoc4)OC(=O)[C@H]4O[C@]43[C@@]21C` [Gedunin], the “surface PD-L1 immunofluorescence intensity” value was 1.12.

As for `Cc1cc2nc3c(=O)[nH]c(=O)nc-3n(C[C@H](O)[C@H](O)[C@H](O)CO)c2cc1C` [Riboflavin (Vitamin B2)], the “surface PD-L1 immunofluorescence intensity” value came to 1.12.

For the molecule `CCN(CC)c1ccc(/C=N/NC(=O)c2ccc(O)cc2)cc1`, the “surface PD-L1 immunofluorescence intensity” value is 1.03.

`CO[C@H]1/C=C/O[C@@]2(C)Oc3c(C)c(O)c4c(O)c(c5c(nc6cc(C)ccn65)c4c3C2=O)NC(=O)/C(C)=C\C=C\[C@H](C)[C@H](O)[C@@H](C)[C@@H](O)[C@@H](C)[C@H](OC(C)=O)[C@@H]1C` [Rifaximin]: the “surface PD-L1 immunofluorescence intensity” value was 0.952.

As to `CO[C@H]1/C=C/O[C@@]2(C)Oc3c(C)c(O)c4c(O)c(c5c(nc6cc(C)ccn65)c4c3C2=O)NC(=O)/C(C)=C\C=C\[C@H](C)[C@H](O)[C@@H](C)[C@@H](O)[C@@H](C)[C@H](OC(C)=O)[C@@H]1C` [Rifaximin (Xifaxan)], the “surface PD-L1 immunofluorescence intensity” value came out at 1.03.

As for `Clc1cccc(Cl)c1NC1=NCCN1` [Clonidine hydrochloride], the “surface PD-L1 immunofluorescence intensity” value worked out at 0.933 ± 0.059.

Consider `C[C@]12C=CC(=O)N[C@@H]1CC[C@@H]1[C@@H]2CC[C@]2(C)[C@@H](C(=O)Nc3cc(C(F)(F)F)ccc3C(F)(F)F)CC[C@@H]12` [Dutasteride], for which the “surface PD-L1 immunofluorescence intensity” value stood at 1.04.

For `CCCNC(=O)NS(=O)(=O)c1ccc(Cl)cc1` [Chlorpropamide], the “surface PD-L1 immunofluorescence intensity” value was found to be 1.06.

Consider `CC(=O)O[C@]1(C(C)=O)CC[C@H]2[C@@H]3C=C(Cl)C4=CC(=O)CC[C@]4(C)[C@H]3CC[C@@]21C` [Chlormadinone acetate], for which the “surface PD-L1 immunofluorescence intensity” value was determined as 0.882.

With `NCCCCCC(=O)O` [Aminocaproic acid], the “surface PD-L1 immunofluorescence intensity” value turned out to be 1.01.

Take `CC(C)CCNC(=O)[C@H](CC(C)C)NC(=O)[C@H]1O[C@@H]1C(=O)O`: the “surface PD-L1 immunofluorescence intensity” value came out at 1.09.

For the molecule `COc1ccc2c(Oc3ccc(NC(=O)c4c(C)n(CC(C)(C)O)n(-c5ccccc5)c4=O)nc3)ccnc2c1`, the “surface PD-L1 immunofluorescence intensity” value is 0.9946 ± 0.009.

`CN(C)C(=N)NC(=N)N` [Metformin hydrochloride]: the “surface PD-L1 immunofluorescence intensity” value was 0.891.

Turning to `CC=CC(=O)N(CC)c1ccccc1C` [Crotamiton], the “surface PD-L1 immunofluorescence intensity” value came to 1.03.

Regarding `Cc1nc2c([nH]1)-c1ccccc1N(C(=O)c1ccc(NC(=O)c3ccccc3-c3ccccc3)cc1)CC2` [Conivaptan HCl (Vaprisol)], the “surface PD-L1 immunofluorescence intensity” value was 1.14.

For the origin of these results see the supplement of paper PMC8732350.
